The values that follow come from the supplement of paper PMC8728848.

Assay in all cases: glycan array binding signal (z-score within array); higher = stronger binding
Common to all, as to settings: glycan notation: IUPAC condensed, linker removed

Experiment [1] concerns the target Gal(b1-4)GlcNAc(b1-6)[Gal(b1-3)]GalNAc. An outline of the steps:
(§1)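 Glycan array data were curated from 3228 arrays in the Consortium for Functional Glycomics database and kept only where the protein sequence was available. Glycan names were converted to IUPAC-condensed notation, and columns mapping to the same glycan were averaged. The binding signal is a within-array Z-score, averaged across arrays of the same protein sequence at different concentrations or buffers and across linkers. Negative Z-scores can be read as non-binding.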

Experiment [2] deals with Gal(b1-4)GlcNAc(b1-6)[Gal(b1-4)GlcNAc(b1-3)]GalNAc. In short, it runs like this: as §1
Another experiment deals with Gal(b1-4)GlcNAc6P. In short, it runs like this: as §1
The next experiment has as its target Gal(b1-6)Gal. In short, it runs like this:
as §1

The next experiment concerns the target Gal3S(b1-3)GalNAc. In short, it runs like this:
as §1

For the next experiment, the target named is Gal3S(b1-3)GlcNAc. In short, it runs like this:
as §1

Experiment [3] addresses Gal3S(b1-3)[Fuc(a1-4)]GlcNAc. In short, it runs like this: as §1
For another experiment, the target named is Gal3S(b1-4)Glc. In short, it runs like this:
as §1

Another experiment deals with Gal3S(b1-4)Glc6S. In short, it runs like this: as §1
In the next experiment the target is Gal3S(b1-4)GlcNAc. An outline of the steps: as §1
The target of another experiment is Gal3S(b1-4)GlcNAc6S. In short, it runs like this: as §1
Experiment [4] addresses Gal3S(b1-4)[Fuc(a1-3)]Glc. In short, it runs like this: as §1
For experiment [5], the target named is Gal3S(b1-4)[Fuc(a1-3)]Glc6S. In short, it runs like this: as §1
Experiment [6] addresses Gal3S(b1-4)[Fuc(a1-3)]GlcNAc. In short, it runs like this:
as §1

The target of experiment [7] is Gal3S(b1-4)[Fuc(a1-3)]GlcNAc6S. In short, it runs like this:
as §1

In another experiment the target is Gal3S4S(b1-4)GlcNAc. An outline of the steps: as §1
For another experiment, the target named is Gal3S6S(b1-4)GlcNAc. In short, it runs like this:
as §1

In the next experiment the target is Gal3S6S(b1-4)GlcNAc6S. In short, it runs like this: as §1
In a further experiment the target is Gal4S(b1-4)GlcNAc. In short, it runs like this:
as §1

For the next experiment, the target named is Gal4S6S(b1-4)GlcNAc. An outline of the steps:
as §1

The next experiment has as its target Gal6P(b1-4)GlcNAc. In short, it runs like this: as §1
Another experiment has as its target Gal6S(b1-3)GlcNAc. In short, it runs like this:
as §1

The next experiment addresses Gal6S(b1-3)GlcNAc6S. In short, it runs like this:
as §1

Some of the results follow.

B1: Gal 10 (Homo sapiens), Q05315 (protein)
chain: MSLLPVPYTEAASLSTGSTVTIKGRPLVCFLNEPYLQVDFHTEMKEESDIVFHFQVCFGRRVVMNSREYGAWKQQVESKNMPFQDGQEFELSISVLPDKYQVMVNGQSSYTFDHRIKPEAVKMVQVWRDISLTKFNVSYLKR
Turning to B1, the “glycan array binding signal (z-score)” value in experiment [1] is -0.518; in experiment [2], 0.246; with Gal(b1-4)GlcNAc6P it was -0.463; with Gal(b1-6)Gal, 1.22; with Gal3S(b1-3)GalNAc, -0.157; with Gal3S(b1-3)GlcNAc, -0.542. The “glycan array binding signal (z-score)” value in [3] is -0.033; in the experiment with Gal3S(b1-4)Glc, -0.577; with Gal3S(b1-4)Glc6S it was 0.08; with Gal3S(b1-4)GlcNAc, -0.335; in the experiment with Gal3S(b1-4)GlcNAc6S, -0.008; in [4] it was -0.407. Further, the “glycan array binding signal (z-score)” value in experiment [5] is 0.301; in experiment [6], -0.495; in experiment [7], -0.211; with Gal3S4S(b1-4)GlcNAc, -1.33; with Gal3S6S(b1-4)GlcNAc it was 0.652; with Gal3S6S(b1-4)GlcNAc6S, -0.166. In addition, the “glycan array binding signal (z-score)” value with Gal4S(b1-4)GlcNAc was -0.269; with Gal4S6S(b1-4)GlcNAc, 0.061; with Gal6P(b1-4)GlcNAc it was -0.104; with Gal6S(b1-3)GlcNAc it was -0.062; with Gal6S(b1-3)GlcNAc6S, -0.718.
